# Library screening results

Sequences of proteins named here, by UniProt entry; tags and fusion partners are left off.
UniProt E9BF75, entry or part of it: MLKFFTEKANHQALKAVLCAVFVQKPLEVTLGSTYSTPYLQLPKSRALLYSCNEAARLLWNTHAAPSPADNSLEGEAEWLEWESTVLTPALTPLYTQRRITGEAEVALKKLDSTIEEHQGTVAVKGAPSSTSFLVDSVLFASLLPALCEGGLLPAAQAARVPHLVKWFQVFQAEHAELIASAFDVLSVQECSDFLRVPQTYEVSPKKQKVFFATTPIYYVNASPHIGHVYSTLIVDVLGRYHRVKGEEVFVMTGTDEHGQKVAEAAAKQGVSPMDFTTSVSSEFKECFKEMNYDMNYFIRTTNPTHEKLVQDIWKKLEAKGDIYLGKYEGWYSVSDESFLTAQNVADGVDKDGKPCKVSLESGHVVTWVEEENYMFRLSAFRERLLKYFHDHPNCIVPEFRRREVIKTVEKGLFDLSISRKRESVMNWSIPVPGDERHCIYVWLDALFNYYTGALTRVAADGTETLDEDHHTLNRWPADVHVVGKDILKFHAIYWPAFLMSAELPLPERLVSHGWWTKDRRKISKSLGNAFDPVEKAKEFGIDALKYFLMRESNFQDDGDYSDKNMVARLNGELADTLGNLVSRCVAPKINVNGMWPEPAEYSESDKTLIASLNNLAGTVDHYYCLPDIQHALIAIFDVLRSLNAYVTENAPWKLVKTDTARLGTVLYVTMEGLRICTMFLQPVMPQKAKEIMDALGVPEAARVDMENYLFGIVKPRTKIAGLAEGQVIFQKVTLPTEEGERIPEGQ

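Methionyl-tRNA synthetase (putative), Leishmania donovani (UniProt E9BF75). Primary screen of methionyl-tRNA synthetase; the read-out is not stated. The test concentration is not given. The values are filed as inhibition. About 68,000 compounds were tested under these conditions; 0.035% (about 24) showed 50% or more at least once.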

Results are percentages, as filed.
The controls that fix the scale are not given in the record; negative values are as filed.
The compounds are a random part of those screened.

structure,Inhibition
CS(=O)(=O)NC[C@]12COC[C@H]1CN(C(=O)c1ccncn1)C2,2.837
CCCc1cc(CNc2cc(CCC)nc3ccnn23)on1,10.94
CN1C(=O)C2(CC(=O)Nc3[nH]ncc32)c2cc(Cl)ccc21 (centres unmarked),9.913
O=C(O)c1ccc2c(c1)C1(CCCCC1)CN2C(=O)c1cccs1,-0.7407
CCCN1CCN(C(=O)c2cnccn2)[C@H]2CS(=O)(=O)C[C@H]21,10.51
Cc1ccc(CN2CCc3c(nnn3C)C2COCc2ccccc2)s1 (centres unmarked),2.747
Cc1nn(C(C)C)c(C)c1NC(=O)c1ccncc1,16.5
Cc1nn(C)c(N(C)C)c1CNCC(O)COc1ccc(F)cc1 (centres unmarked),12.32
c1csc(N2CCN(c3ncnc4sccc34)CC2)n1,6.349
Cc1noc(NC(=O)c2ccc(Br)cc2)n1,17.32
O=C(c1cc2cccc(F)c2[nH]1)N1C[C@@H](O)[C@H](N2CCCC2)C1,17.92
c1cn(-c2ccc(N3CCC(NC4CC4)CC3)cc2)cn1,12.93
Cn1cc(C(=O)N2CCC(Cc3nccs3)CC2)cn1,2.448
c1coc(CN2CCc3onc(Cn4cccc4)c3C2)c1,-8.772
O=C1CCCN1c1cccc(CNCc2nc(C3CC3)no2)c1,7.988
CCO[C@@H]1CO[C@@]2(CCCN(Cc3scnc3C)C2)C1,3.5
Cc1ccc(S(=O)(=O)N2CSCC2C(=O)NCC(F)(F)F)cc1C (centres unmarked),22.64
CCN(CC)C(=O)c1cc(Br)cc(S(=O)(=O)N2CCOCC2)c1F,13.12
O=C(COCc1ccccc1)NCc1ccc(O)c(F)c1,15.92
CC(C)(CNc1cccc(Cl)c1)NC(=O)C1CCCN(CC(N)=O)C1 (centres unmarked),10.3
CC(C)c1cc(C(=O)N2CCN(c3ccncc3)CC2)n(C)n1,11.68
CCN1CC2(CC1=O)CN(C(C)=O)CCN(C(=O)NC)C2 (centres unmarked),7.692
Cc1ccccc1C1CCN(CCn2cc(-c3nccn3C)nn2)C1 (centres unmarked),14.54
CC(Cn1cccn1)NCCS(=O)(=O)c1ccc(Cl)cc1 (centres unmarked),14.43
Cc1cccc(CN2CCc3onc(CO)c3C2)n1,6.557
Cc1cc(C)n(CCNC(=O)c2cc(C3CC3)n[nH]2)n1,8.387
CC(=O)N1CCC(Cc2cnc(-c3c(C)n[nH]c3C)cn2)CC1,-5.145
CNC(=O)C1Cn2ccnc2C2(CCN(Cc3cccc(C)n3)CC2)O1 (centres unmarked),15.82
CC(C)c1nc(CC(=O)N2CCN(C)CC2c2ccccc2)cs1 (centres unmarked),2.507
OC(COCc1ccccc1F)CN1CCC(Cn2cccn2)CC1 (centres unmarked),8.732
Cc1cc(-c2ccc(=O)n(C3CCN(S(=O)(=O)N(C)C)CC3)n2)c(C)o1,9.974
Cc1ccc2cc(C3(O)CCN(C(=O)CN4CCCC4)CC3)ccc2n1,15.93
CC(Cn1cccn1)NCCS(=O)(=O)c1ccccc1 (centres unmarked),13.06
Cc1ccoc1C(=O)N1C[C@@H]2[C@@H](C1)OCC(=O)N2Cc1cccnc1,-21.57
CCOCCn1c(=O)[nH]c2cc(C(=O)N(C)Cc3ccno3)ccc21,-4.7
CCc1nc(CN2CCCN(C(=O)C(CC)OC)CC2)cs1 (centres unmarked),10.24
O=S(=O)(N1CCCCC1)N1CCOC2(CCCC2)C1,17.87
CC1c2ncc(Cn3cncn3)n2CCN1C(=O)C1CCOCC1 (centres unmarked),17.15
O=C(c1ccnnc1)N1C[C@@H]2CC[C@H](Oc3cccc(F)c3)[C@@H]2C1,10.62
Cc1cnn(CC2CN(CCCc3nc4ccccc4o3)CCO2)c1 (centres unmarked),20.44
O=C(NS(=O)(=O)c1cc(Cl)sc1Cl)c1cccc2c1OCCO2,-7.389
COc1cccc(CN2C[C@@H](F)[C@@H](OCc3nc4cnccc4[nH]3)C2)c1,10.53
O=C(NCc1cnc2n1CCN(Cc1ccsc1)CC2)C1CCC1,15.24
Cn1cnnc1C1CCN(C(=O)CCCOc2ccccc2F)CC1,10.12
OC(CNCCn1cccn1)c1cccc(Br)c1 (centres unmarked),17.63
O=C(O)C(c1cccc2c1OCC2)N1CCC(N2CCCC2)CC1 (centres unmarked),1.804
COC(=O)c1ccc(N2CCN(C(=O)c3ccn(C)c(=O)c3)CC2)cc1,3.686
Cc1ncsc1CCC(=O)NC1CCN(c2ncccc2C#N)CC1,12.06
Cc1ccc(NC(C)C(=O)NCc2cccs2)cc1Cl (centres unmarked),5.686
Cc1nn(C)c2cnn(Cc3ccc(C(=O)NCC4CC4)o3)c12,10.97
Cc1cnc(C(=O)NCC2Cc3ccccc3O2)cn1 (centres unmarked),7.521
NC(=O)C1CN(Cc2c(O)ccc3oc4c(c23)CCCC4)CCO1 (centres unmarked),20.91
CN(CCN1CCN(c2ccccc2)CC1)C(=O)Nc1ccccn1,13.04
CCCc1cc(=O)[nH]c2nnc(SCC(=O)NCCc3ccccc3)n12,6.643
CNC(=O)N1CCC2(COCc3c(C)nc(NCc4ccco4)nc32)C1 (centres unmarked),15.68

Some entries from above, unchanged:

structure	Inhibition
Cn1cc(C(=O)N2CCC(Cc3nccs3)CC2)cn1	2.448
NC(=O)C1CN(Cc2c(O)ccc3oc4c(c23)CCCC4)CCO1 (centres unmarked)	20.91
Cc1ccc(S(=O)(=O)N2CSCC2C(=O)NCC(F)(F)F)cc1C (centres unmarked)	22.64
O=C1CCCN1c1cccc(CNCc2nc(C3CC3)no2)c1	7.988
COc1cccc(CN2C[C@@H](F)[C@@H](OCc3nc4cnccc4[nH]3)C2)c1	10.53

From ChEMBL document CHEMBL3988442, “University of Dundee, Small-Polar-MMV Screening Library” (2021).